Laboratory results from patent US10413520B2, “Oral pharmacological composition including 5-{4-(amino sulfonyl)phenyl}-2,2-dimethyl-4-(3-fluorophenyl)-3(2H)-furanone having crystalline structure with excellent stability” (CRYSTALGENOMICS, INC., priority 2014, dated 2019).
Some of these results come from one statement about several compounds together.

Assay: Hygroscopic property: water content after storage
Format: physicochemical
Conditions: unpacked raw material, 25±2° C. and 75±5% (RH), 72 hr

SMILES	Water content [%]
CC1(C)OC(c2ccc(S(N)(=O)=O)cc2)=C(c2cccc(F)c2)C1=O [Preparative Example 5]	≤ 0.2
CC1(C)OC(c2ccc(S(N)(=O)=O)cc2)=C(c2cccc(F)c2)C1=O [Preparative Example 6]	≤ 0.2
